In PMC10931608:
Results are given in words; binding and its absence hold for the method and conditions named. Binding seen in cells or lysates may run through a third protein. Some results given as binding are weak or reduced against the parent protein; the word gives no strength.

Biological target: Mitotic spindle positioning (MISP) (human) (UniProt Q8IVT2)
Experiment: co-IP; 293FT cells: control, MISP overexpression, OIP5 overexpression, co-overexpression; RIPA lysis buffer with protease and phosphatase inhibitors; IP with rabbit polyclonal anti-MISP or anti-OIP5 antibody on Dynabeads Protein A; Western blot with anti-MISP or anti-OIP5

| binding | Substance |
| --- | --- |
| binds | GFP-tagged Opa interacting protein 5 (OIP5), exogenous (from UniProt O43482 1-229) |
| binds | Opa interacting protein 5 (OIP5), endogenous in 293FT cells (from UniProt O43482 1-229) |
